The supplement of paper PMC6411743
± gives the standard deviation of the averaged measurements. This is one part of the list.

The chains behind the UniProt entries cited, without tags or fusion partners. Where a name states a change or a piece, a line headed by the entry shows the natural chain unless it says otherwise.
UniProt Q06587: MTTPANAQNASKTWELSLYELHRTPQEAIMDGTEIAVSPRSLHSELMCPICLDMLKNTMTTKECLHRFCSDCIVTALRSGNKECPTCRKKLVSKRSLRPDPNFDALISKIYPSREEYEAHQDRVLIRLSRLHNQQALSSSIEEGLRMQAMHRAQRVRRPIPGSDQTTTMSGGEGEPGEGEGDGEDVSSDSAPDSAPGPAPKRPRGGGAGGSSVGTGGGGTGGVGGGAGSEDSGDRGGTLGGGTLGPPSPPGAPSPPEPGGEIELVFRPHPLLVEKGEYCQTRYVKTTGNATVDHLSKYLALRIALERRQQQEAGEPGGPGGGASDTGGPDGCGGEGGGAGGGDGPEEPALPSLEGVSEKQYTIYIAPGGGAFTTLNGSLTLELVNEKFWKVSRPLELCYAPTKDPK
UniProt Q01105, whole entry: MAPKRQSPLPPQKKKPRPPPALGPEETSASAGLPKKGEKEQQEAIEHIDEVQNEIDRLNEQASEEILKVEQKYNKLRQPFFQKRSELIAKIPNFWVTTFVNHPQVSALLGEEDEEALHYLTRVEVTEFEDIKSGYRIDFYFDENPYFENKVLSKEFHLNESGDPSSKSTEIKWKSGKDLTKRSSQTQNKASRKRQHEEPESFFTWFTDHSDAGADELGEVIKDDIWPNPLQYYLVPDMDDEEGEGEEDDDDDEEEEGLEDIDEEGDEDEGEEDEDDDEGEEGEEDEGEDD
UniProt Q14644: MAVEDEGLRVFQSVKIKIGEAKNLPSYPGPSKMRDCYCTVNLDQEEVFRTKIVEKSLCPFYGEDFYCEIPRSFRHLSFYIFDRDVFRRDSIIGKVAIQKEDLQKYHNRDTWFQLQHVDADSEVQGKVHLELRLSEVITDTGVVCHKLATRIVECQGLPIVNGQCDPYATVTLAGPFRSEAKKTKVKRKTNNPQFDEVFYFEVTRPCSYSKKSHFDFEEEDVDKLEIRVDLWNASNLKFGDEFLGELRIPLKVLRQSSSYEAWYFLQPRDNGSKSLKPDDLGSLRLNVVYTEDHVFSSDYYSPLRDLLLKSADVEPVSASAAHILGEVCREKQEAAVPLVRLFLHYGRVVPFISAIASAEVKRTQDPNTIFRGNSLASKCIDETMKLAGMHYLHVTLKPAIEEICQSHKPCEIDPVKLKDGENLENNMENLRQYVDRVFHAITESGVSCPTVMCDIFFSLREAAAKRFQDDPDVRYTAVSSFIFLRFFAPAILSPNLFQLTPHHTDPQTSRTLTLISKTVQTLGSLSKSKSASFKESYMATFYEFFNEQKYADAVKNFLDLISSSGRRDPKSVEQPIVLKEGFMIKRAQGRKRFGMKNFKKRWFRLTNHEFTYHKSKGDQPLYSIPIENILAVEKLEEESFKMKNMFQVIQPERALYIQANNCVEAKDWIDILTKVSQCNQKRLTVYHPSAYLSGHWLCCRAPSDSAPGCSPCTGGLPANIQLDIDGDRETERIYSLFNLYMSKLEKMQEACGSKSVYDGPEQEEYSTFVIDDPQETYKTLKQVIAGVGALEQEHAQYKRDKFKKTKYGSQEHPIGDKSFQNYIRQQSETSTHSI
UniProt Q13895: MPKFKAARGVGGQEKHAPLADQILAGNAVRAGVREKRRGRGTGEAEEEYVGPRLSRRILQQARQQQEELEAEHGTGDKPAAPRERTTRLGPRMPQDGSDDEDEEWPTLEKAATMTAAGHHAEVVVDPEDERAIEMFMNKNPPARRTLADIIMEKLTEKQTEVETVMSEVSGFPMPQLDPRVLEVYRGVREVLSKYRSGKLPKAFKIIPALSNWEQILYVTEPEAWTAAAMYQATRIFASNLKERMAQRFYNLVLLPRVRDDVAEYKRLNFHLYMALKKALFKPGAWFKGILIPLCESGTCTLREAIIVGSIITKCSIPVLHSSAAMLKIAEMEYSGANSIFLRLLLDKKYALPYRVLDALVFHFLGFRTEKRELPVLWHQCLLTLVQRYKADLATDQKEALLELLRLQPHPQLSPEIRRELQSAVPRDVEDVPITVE
UniProt Q13472: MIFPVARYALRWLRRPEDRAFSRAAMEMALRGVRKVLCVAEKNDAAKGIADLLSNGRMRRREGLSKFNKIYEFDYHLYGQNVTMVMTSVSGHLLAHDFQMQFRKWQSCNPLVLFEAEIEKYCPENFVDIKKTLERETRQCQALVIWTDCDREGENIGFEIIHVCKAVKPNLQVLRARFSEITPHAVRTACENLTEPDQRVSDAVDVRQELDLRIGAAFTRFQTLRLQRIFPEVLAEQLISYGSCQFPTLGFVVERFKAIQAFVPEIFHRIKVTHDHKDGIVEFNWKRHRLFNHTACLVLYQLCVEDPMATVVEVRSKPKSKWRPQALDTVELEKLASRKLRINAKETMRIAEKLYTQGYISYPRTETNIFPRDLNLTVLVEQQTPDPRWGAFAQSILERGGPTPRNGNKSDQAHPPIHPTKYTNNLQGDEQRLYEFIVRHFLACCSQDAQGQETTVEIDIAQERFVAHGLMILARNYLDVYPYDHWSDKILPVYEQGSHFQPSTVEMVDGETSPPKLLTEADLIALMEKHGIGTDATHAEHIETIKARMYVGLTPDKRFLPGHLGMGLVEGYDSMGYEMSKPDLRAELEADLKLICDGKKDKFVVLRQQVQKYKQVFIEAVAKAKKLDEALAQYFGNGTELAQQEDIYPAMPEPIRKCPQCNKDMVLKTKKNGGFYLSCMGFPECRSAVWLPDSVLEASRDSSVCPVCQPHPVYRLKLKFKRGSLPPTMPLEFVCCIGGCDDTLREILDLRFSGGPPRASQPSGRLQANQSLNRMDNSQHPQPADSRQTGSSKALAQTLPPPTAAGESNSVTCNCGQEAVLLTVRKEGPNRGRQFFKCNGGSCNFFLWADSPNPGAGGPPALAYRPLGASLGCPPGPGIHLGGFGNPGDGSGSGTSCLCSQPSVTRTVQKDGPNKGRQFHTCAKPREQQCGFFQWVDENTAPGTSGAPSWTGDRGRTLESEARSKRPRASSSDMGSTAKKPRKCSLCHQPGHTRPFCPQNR
UniProt Q04727: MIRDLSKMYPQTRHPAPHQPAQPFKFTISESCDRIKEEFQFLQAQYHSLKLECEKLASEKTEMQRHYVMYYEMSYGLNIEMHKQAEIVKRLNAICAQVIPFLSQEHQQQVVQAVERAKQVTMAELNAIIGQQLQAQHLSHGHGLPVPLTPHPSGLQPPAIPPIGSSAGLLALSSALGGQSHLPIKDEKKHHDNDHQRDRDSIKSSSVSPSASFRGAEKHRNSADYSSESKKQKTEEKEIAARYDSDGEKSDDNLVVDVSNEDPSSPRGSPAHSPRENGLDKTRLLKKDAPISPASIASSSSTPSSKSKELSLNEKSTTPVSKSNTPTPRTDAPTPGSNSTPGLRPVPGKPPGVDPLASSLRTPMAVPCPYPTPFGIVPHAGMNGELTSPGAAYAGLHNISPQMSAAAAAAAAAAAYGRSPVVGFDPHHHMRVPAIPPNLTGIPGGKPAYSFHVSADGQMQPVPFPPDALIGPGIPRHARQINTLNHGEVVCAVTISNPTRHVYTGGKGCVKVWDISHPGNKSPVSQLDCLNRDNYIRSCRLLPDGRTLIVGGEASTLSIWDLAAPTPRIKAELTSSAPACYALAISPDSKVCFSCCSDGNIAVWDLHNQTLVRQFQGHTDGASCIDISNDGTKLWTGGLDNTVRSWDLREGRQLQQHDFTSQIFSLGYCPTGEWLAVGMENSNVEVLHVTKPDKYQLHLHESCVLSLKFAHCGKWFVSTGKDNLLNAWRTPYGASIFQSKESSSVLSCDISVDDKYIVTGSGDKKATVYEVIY
UniProt Q05932: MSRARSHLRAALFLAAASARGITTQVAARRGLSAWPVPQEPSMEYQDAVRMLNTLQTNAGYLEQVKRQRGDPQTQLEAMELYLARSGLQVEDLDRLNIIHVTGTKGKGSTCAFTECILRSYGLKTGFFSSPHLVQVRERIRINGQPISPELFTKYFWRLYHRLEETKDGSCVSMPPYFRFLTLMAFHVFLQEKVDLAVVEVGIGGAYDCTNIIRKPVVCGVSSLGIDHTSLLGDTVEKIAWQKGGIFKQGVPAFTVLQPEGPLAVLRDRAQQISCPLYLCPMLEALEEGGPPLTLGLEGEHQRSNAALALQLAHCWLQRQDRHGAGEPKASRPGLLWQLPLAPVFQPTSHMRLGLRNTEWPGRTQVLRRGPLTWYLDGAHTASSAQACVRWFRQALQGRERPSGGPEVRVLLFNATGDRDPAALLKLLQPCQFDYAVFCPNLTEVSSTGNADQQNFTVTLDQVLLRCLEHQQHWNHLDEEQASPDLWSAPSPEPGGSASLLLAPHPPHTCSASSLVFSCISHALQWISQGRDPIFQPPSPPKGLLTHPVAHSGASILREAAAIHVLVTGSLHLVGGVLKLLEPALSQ
UniProt Q06547, whole entry: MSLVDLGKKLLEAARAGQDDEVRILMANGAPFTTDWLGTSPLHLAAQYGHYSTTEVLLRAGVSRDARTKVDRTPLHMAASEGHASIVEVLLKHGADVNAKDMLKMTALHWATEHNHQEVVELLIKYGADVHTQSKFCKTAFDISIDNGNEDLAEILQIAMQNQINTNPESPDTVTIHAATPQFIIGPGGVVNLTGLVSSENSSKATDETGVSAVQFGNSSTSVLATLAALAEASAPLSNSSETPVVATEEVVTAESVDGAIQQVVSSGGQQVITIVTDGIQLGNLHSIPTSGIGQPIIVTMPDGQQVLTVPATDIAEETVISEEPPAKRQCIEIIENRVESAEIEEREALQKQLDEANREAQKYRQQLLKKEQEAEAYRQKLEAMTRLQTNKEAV
UniProt Q13905: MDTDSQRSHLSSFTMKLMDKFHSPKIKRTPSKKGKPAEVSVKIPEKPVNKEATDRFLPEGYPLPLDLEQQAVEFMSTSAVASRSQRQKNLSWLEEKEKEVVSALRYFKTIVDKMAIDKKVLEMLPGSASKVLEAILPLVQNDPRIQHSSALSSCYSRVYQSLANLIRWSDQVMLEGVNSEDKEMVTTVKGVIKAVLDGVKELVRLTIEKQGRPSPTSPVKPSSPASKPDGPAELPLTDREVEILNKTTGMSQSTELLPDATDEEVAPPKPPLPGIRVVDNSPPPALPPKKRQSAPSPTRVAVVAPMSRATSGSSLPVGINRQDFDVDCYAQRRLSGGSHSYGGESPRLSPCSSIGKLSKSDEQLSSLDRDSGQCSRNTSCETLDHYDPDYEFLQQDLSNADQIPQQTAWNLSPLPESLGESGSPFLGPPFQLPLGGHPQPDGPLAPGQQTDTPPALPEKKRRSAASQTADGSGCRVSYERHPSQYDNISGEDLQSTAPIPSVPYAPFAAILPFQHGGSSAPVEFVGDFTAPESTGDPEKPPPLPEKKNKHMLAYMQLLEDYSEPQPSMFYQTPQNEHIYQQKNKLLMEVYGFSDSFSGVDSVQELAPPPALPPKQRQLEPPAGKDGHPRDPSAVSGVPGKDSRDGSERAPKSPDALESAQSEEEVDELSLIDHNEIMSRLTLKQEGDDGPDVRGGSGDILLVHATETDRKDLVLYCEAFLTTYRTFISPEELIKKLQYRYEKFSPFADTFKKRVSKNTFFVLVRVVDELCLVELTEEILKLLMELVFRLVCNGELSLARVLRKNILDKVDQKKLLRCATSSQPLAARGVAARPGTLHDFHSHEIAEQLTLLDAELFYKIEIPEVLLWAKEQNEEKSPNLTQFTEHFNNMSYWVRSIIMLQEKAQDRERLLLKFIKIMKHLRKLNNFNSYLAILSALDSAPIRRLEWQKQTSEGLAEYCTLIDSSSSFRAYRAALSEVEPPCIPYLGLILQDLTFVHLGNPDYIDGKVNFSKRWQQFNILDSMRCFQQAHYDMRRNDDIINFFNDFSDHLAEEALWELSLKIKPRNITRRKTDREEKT
UniProt Q08AM6: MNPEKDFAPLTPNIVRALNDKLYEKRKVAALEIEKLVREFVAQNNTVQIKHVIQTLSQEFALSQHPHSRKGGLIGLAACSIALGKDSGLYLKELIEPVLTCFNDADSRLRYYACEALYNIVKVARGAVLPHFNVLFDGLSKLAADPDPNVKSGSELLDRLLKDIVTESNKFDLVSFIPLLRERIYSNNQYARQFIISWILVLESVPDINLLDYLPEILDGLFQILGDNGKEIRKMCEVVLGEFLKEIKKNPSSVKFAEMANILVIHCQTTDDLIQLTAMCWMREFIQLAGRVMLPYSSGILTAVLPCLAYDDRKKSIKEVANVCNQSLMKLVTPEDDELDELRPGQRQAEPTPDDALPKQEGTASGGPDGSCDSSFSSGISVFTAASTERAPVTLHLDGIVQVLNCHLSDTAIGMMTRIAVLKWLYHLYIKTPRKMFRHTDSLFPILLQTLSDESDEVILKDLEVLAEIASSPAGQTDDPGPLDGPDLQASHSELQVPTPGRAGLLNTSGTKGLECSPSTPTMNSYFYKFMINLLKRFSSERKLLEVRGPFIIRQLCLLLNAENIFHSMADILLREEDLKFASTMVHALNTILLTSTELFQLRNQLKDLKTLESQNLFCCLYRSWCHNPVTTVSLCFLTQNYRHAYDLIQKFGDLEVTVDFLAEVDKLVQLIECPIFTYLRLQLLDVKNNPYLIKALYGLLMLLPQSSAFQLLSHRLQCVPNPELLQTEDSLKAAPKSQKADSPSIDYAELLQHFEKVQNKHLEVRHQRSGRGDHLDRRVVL

Compound: Nc1nc2c(ncn2[C@@H]2O[C@H](COP(=O)(O)OP(=O)(O)OP(=O)(O)O)[C@@H](O)[C@H]2O)c(=O)[nH]1 [guanosine triphosphate]
Assay: NP40-soluble protein abundance relative to vehicle (solubility fold change) (ratio); higher = more soluble protein in presence of GTP
How it was run: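 Across three independent experiments, values are fold changes against the detergent-processed vehicle for each replicate, based on vsn-normalised intensities. The samples were Jurkat crude lysate treated with eight concentrations (0.1 to 10 mM) for 10 min at room temperature and then 3 min at 37 °C. Lysate was solubilised with 0.8% NP40 and benzonase, ultracentrifuged, and the supernatant analysed by TMT-labelled LC-MS/MS.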

Target	NP40-soluble protein abundance (concentration: 0.1mM)	NP40-soluble protein abundance (concentration: 0.5mM)	NP40-soluble protein abundance (concentration: 1mM)	NP40-soluble protein abundance (concentration: 2mM)	NP40-soluble protein abundance (concentration: 4mM)	NP40-soluble protein abundance (concentration: 6mM)	NP40-soluble protein abundance (concentration: 8mM)	NP40-soluble protein abundance (concentration: 10mM)
RING1 (UniProt Q06587)	0.932 ± 0.044	0.987 ± 0.035	0.964 ± 0.053	1 ± 0.046	1.05 ± 0.056	1.08 ± 0.054	1.07 ± 0.047	1.1 ± 0.034
UniProt Q14103-3|D6RF44 and related entries	0.913 ± 0.097	0.946 ± 0.094	0.943 ± 0.085	0.894 ± 0.1	0.903 ± 0.1	0.915 ± 0.084	0.947 ± 0.11	0.929 ± 0.11
REEP5 (UniProt Q00765)	0.863 ± 0.048	0.84 ± 0.09	0.9 ± 0.098	0.866 ± 0.1	0.88 ± 0.12	0.817 ± 0.077	0.819 ± 0.11	0.898 ± 0.12
UniProt Q01105-2	0.861 ± 0.073	0.834 ± 0.041	0.823 ± 0.18	0.988 ± 0.23	0.829 ± 0.19	0.958 ± 0.26	0.782 ± 0.13	1.03 ± 0.25
UniProt Q01968 and related entries	1.22 ± 0.11	1.16 ± 0.049	1.06 ± 0.087	1.06 ± 0.067	1.1 ± 0.018	1.04 ± 0.03	1.11 ± 0.068	0.993 ± 0.068
POLA2 (UniProt Q14181)	1.08 ± 0.053	1.03 ± 0.043	1.04 ± 0.032	0.97 ± 0.058	1.07 ± 0.047	1.01 ± 0.075	1.08 ± 0.024	0.971 ± 0.051
PLS1 (UniProt Q14651)	0.958 ± 0.08	0.956 ± 0.085	0.937 ± 0.095	0.912 ± 0.075	0.903 ± 0.089	0.891 ± 0.058	0.887 ± 0.094	0.888 ± 0.088
TSTA3 (UniProt Q13630)	1.05 ± 0.039	1.04 ± 0.013	1.01 ± 0.078	0.967 ± 0.049	0.942 ± 0.051	0.993 ± 0.12	0.994 ± 0.11	0.934 ± 0.048
UniProt Q12968 and related entries	1.02 ± 0.07	1.01 ± 0.056	1.03 ± 0.063	0.978 ± 0.054	0.989 ± 0.14	0.942 ± 0.093	1.06 ± 0.086	0.985 ± 0.091
UniProt Q05519 and related entries	1.13 ± 0.071	1.26 ± 0.11	1.39 ± 0.15	1.26 ± 0.14	1.31 ± 0.13	1.25 ± 0.12	1.39 ± 0.19	1.32 ± 0.19
UniProt Q14644 and related entries	1.12 ± 0.017	1.09 ± 0.028	1.06 ± 0.016	0.984 ± 0.046	1.08 ± 0.084	0.949 ± 0.083	0.916 ± 0.017	0.897 ± 0.02
UniProt Q12931 and related entries	1.07 ± 0.041	1.07 ± 0.066	0.921 ± 0.013	1.01 ± 0.12	0.913 ± 0.066	0.906 ± 0.044	0.857 ± 0.055	0.826 ± 0.11
UniProt Q14005 and related entries	0.979 ± 0.016	0.946 ± 0.031	0.997 ± 0.049	0.93 ± 0.057	0.943 ± 0.1	0.931 ± 0.083	0.958 ± 0.034	0.95 ± 0.045
SF3A3 (UniProt Q12874)	0.979 ± 0.041	1.04 ± 0.066	1.04 ± 0.05	1.02 ± 0.075	1.04 ± 0.068	1.06 ± 0.062	1.05 ± 0.083	1.04 ± 0.092
PIN1 (UniProt Q13526)	0.888 ± 0.024	0.869 ± 0.025	0.939 ± 0.046	0.91 ± 0.059	0.88 ± 0.079	0.886 ± 0.07	0.887 ± 0.05	0.912 ± 0.054
BYSL (UniProt Q13895)	0.924 ± 0.03	0.952 ± 0.051	0.949 ± 0.033	0.987 ± 0.084	0.987 ± 0.1	0.916 ± 0.12	0.856 ± 0.048	0.885 ± 0.07

Target	NP40-soluble protein abundance (concentration: 0.1mM)	NP40-soluble protein abundance (concentration: 0.5mM)	NP40-soluble protein abundance (concentration: 1mM)	NP40-soluble protein abundance (concentration: 2mM)	NP40-soluble protein abundance (concentration: 4mM)	NP40-soluble protein abundance (concentration: 6mM)	NP40-soluble protein abundance (concentration: 8mM)	NP40-soluble protein abundance (concentration: 10mM)
UniProt Q13042 and related entries	1.11 ± 0.067	1.16 ± 0.18	1.09 ± 0.14	1.17 ± 0.22	1.24 ± 0.24	1.2 ± 0.23	1.18 ± 0.22	1.13 ± 0.24
UniProt Q13472 and related entries	1.08 ± 0.043	1.05 ± 0.061	1 ± 0.061	1.05 ± 0.038	1.05 ± 0.074	1.02 ± 0.11	1.02 ± 0.051	0.98 ± 0.045
UniProt Q04727 and related entries	0.997 ± 0.048	0.925 ± 0.068	0.919 ± 0.074	0.898 ± 0.097	0.884 ± 0.065	0.91 ± 0.073	0.938 ± 0.079	0.918 ± 0.048
SPAG1 (UniProt Q07617)	1.14 ± 0.23	1.03 ± 0.088	0.976 ± 0.065	0.976 ± 0.036	0.965 ± 0.043	0.973 ± 0.051	0.956 ± 0.053	0.978 ± 0.054
TTLL12 (UniProt Q14166)	1.02 ± 0.028	1.05 ± 0.053	0.932 ± 0.015	0.957 ± 0.043	0.95 ± 0.021	0.929 ± 0.034	0.892 ± 0.041	0.88 ± 0.062
UniProt Q05932 and related entries	1.17 ± 0.17	1.14 ± 0.17	1.06 ± 0.05	1.15 ± 0.13	1.16 ± 0.033	1.13 ± 0.13	1.07 ± 0.14	1.02 ± 0.029
GOLGA3 (UniProt Q08378)	0.982 ± 0.076	0.995 ± 0.033	1.04 ± 0.041	1.01 ± 0.057	1.02 ± 0.039	1.03 ± 0.038	1.06 ± 0.074	1.07 ± 0.082
UniProt Q13332 and related entries	0.975 ± 0.13	0.979 ± 0.12	0.984 ± 0.13	0.983 ± 0.081	0.999 ± 0.087	1.01 ± 0.19	0.985 ± 0.08	0.957 ± 0.021
MAD2L1 (UniProt Q13257)	1.04 ± 0.073	1.04 ± 0.098	0.948 ± 0.046	0.946 ± 0.1	0.921 ± 0.088	0.899 ± 0.066	0.851 ± 0.016	0.84 ± 0.082
UniProt Q14289-2|Q14289	0.996 ± 0.021	1.02 ± 0.013	0.967 ± 0.034	0.976 ± 0.059	0.949 ± 0.041	0.943 ± 0.051	0.95 ± 0.061	0.915 ± 0.06
UniProt Q06547 and related entries	1.02 ± 0.098	0.988 ± 0.11	1.01 ± 0.1	1.01 ± 0.17	0.932 ± 0.13	0.954 ± 0.13	0.981 ± 0.1	0.986 ± 0.11
PRDX4 (UniProt Q13162)	1.03 ± 0.075	1.08 ± 0.1	0.966 ± 0.069	0.995 ± 0.074	0.983 ± 0.15	0.992 ± 0.089	0.943 ± 0.062	0.943 ± 0.044
UniProt Q13330-3	1.03 ± 0.011	1.08 ± 0.049	1.06 ± 0.045	1.12 ± 0.082	1.11 ± 0.12	1.16 ± 0.16	1.17 ± 0.15	1.14 ± 0.14
UniProt Q13905 and related entries	0.998 ± 0.038	0.938 ± 0.074	0.988 ± 0.079	0.98 ± 0.085	0.974 ± 0.08	0.906 ± 0.069	0.94 ± 0.042	0.948 ± 0.013
MDC1 (UniProt Q14676)	1.1 ± 0.024	1.14 ± 0.042	1.23 ± 0.053	1.41 ± 0.11	1.66 ± 0.17	1.77 ± 0.21	1.86 ± 0.29	1.92 ± 0.36
VAC14 (UniProt Q08AM6)	1.02 ± 0.03	1.06 ± 0.046	1 ± 0.068	1.02 ± 0.049	1.02 ± 0.067	1.03 ± 0.078	1.05 ± 0.11	1.01 ± 0.074

Some entries already given with just NP40-soluble protein abundance (concentration: 10mM), NP40-soluble protein abundance (concentration: 0.1mM) and NP40-soluble protein abundance (concentration: 1mM):
Target	NP40-soluble protein abundance (concentration: 10mM)	NP40-soluble protein abundance (concentration: 0.1mM)	NP40-soluble protein abundance (concentration: 1mM)
SPAG1 (UniProt Q07617)	0.978 ± 0.054	1.14 ± 0.23	0.976 ± 0.065
TTLL12 (UniProt Q14166)	0.88 ± 0.062	1.02 ± 0.028	0.932 ± 0.015
